Source: PMC9935901, “B-lymphoid tyrosine kinase-mediated FAM83A phosphorylation elevates pancreatic tumorigenesis through interacting with β-catenin” (Signal Transduction and Targeted Therapy, 2023)
Results are given in words; binding and its absence hold for the method and conditions named. In cells and extracts the contact can be indirect. Binding calls can cover weak binding; strength is not graded here.

The chains behind the UniProt entries cited, without tags or fusion partners. Where a name states a change or a piece, a line headed by the entry shows the natural chain unless it says otherwise.
UniProt P35222: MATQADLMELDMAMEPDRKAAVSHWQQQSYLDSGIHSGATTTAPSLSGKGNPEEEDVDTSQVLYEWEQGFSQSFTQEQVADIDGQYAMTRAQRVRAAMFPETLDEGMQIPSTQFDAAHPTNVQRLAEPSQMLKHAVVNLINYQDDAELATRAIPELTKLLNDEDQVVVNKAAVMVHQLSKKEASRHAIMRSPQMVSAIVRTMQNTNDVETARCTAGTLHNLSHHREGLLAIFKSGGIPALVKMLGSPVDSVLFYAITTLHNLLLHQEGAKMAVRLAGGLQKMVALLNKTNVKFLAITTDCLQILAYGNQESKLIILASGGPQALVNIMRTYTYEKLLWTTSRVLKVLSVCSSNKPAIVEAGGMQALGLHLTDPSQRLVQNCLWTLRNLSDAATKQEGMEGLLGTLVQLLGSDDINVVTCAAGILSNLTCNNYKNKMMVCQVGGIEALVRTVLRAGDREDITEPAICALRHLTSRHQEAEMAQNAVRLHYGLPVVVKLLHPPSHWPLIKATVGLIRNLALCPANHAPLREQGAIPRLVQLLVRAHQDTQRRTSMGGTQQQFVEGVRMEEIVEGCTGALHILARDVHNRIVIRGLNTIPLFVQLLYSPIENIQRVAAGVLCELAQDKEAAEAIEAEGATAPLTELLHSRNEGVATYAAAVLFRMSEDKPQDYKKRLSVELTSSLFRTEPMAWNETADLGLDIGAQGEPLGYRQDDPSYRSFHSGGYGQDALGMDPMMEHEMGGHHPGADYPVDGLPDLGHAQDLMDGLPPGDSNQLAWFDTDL
UniProt Q86UY5: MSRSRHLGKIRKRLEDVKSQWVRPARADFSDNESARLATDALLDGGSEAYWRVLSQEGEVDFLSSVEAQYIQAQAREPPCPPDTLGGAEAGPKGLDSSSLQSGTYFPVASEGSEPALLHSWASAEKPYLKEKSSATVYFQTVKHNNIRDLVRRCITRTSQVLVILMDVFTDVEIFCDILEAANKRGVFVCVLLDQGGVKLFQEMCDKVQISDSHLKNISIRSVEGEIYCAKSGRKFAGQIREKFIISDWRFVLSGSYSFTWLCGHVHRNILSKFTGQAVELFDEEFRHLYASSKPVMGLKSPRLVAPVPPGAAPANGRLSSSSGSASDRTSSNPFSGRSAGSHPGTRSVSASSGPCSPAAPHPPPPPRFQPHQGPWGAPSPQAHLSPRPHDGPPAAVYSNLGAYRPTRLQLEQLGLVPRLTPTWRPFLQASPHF

Biological target: β-catenin (construct not stated) (UniProt P35222)
Test: co-IP; HEK293T cells transfected for 48 h, IP and western blotting; with or without BLK, FAM83A wild type, Y138A or Y138D, saracatinib

binding: binds
Substance: DUF1669 domain of FAM83A (from UniProt Q86UY5) (domain or fragment)
